In article PMC7819943, “Rice protein-binding microarrays: a tool to detect cis-acting elements near promoter regions in rice”:
This is one part of the list.

Protein sequences, listed by entry. Tags and fused reporters are not part of them.
UniProt Q0JBA9, entry or part of it: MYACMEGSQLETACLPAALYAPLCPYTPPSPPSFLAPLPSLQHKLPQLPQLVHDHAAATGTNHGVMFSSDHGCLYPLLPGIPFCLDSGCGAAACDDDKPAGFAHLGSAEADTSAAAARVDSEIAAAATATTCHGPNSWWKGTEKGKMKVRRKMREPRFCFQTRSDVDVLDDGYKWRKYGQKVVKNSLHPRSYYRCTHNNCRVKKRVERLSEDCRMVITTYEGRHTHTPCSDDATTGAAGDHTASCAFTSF

Biological target: OsWRKY34 (Oryza sativa, UniProt Q0JBA9 1-250)
Assay: protein-binding microarray (RPBM); PBS, 2% BSA, 51.3 ng/ul salmon testes DNA, 50 uM zinc acetate, 200 nM TF, 25 C, 1 h; high values mean tight binding
Conditions: protein: recombinant; tags: N-terminal polyhistidine and DsRed monomer fusion (pET32a); label: CyDye5-dUTP incorporated in the synthesized complementary strand; 3' TTTTT single-stranded linker to array surface; dsDNA, one strand shown
Method in brief: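 Binding signal is defined as the fluorescence intensity of each feature in arbitrary units, read on an Axon 4000B scanner. Transcription factors with N-terminal polyhistidine and DsRed fusions came from E. coli BL21-CodonPlus and were purified on Ni–NTA. They were incubated at 200 nM for 1 h at 25 °C on a custom Agilent array that had been made double-stranded with Cy5-dUTP, with 50 µM zinc acetate present, and the array was washed.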

| Sequence | binding signal |
| --- | --- |
| TCTTTCATTTGGCCTACATCTTTGCAAGCGAAGTCTTTATCGGAGTCACCTAGTGCAG | 12900 fluorescence intensity (a.u.) |
| TGAAACCAAGATATTTGCAGACAAAGCCGTCTTTTTTATTCGGAGTCACCTAGTGCAG | 8580 fluorescence intensity (a.u.) |
| ACCAAACCGCACATGACACACATTCACACAACCGCACGCACGGAGTCACCTAGTGCAG | 8230 fluorescence intensity (a.u.) |
| CAATTCACGCCACCCGCTCCGCCTCTCGCCGCCTCGACCGCGGAGTCACCTAGTGCAG | 11000 fluorescence intensity (a.u.) |
| GGCCTGGAGCTCAGTCAAACAGTTTCAGCTCAGCTCTATCCGGAGTCACCTAGTGCAG | 8520 fluorescence intensity (a.u.) |
| GGGGACCCAGCCGATTCGCCCAGCCACGCCACCGAGCGCTCGGAGTCACCTAGTGCAG | 10600 fluorescence intensity (a.u.) |
| TGCTCTTTTTTTCTTGATTATAACCTTCCGGGGTAGTTTTCGGAGTCACCTAGTGCAG | 8720 fluorescence intensity (a.u.) |
| GGTGTGTGTTAGTACAATGAGTGATTGCTATGTGTAGATACGGAGTCACCTAGTGCAG | 10100 fluorescence intensity (a.u.) |
| GGTGTGCAATCAACTTGTTGCCGTCGTGTGCAATGGTTCGCGGAGTCACCTAGTGCAG | 8170 fluorescence intensity (a.u.) |
| TCTTCTTCTTCTCGATCTTCTTTCTCTCGTTCACACCTCACGGAGTCACCTAGTGCAG | 10400 fluorescence intensity (a.u.) |
| TCCTCCAGGGCATACAGCATCATTTGCAGGTCTCTCAACTCGGAGTCACCTAGTGCAG | 8070 fluorescence intensity (a.u.) |
| TGCCAATACAAAATTTCTGTACTGTAGAATCGATGTTTACCGGAGTCACCTAGTGCAG | 8260 fluorescence intensity (a.u.) |
| AAGGTGCATTTGGGGTGGTGTTTCCGCTCGGAGATGGTCACGGAGTCACCTAGTGCAG | 11400 fluorescence intensity (a.u.) |
| TTCCAGTTAGCAACGCATTGAGCCATTTTTACATATTCTGCGGAGTCACCTAGTGCAG | 57100 fluorescence intensity (a.u.) |
| ACTTCTCGGATTCCTTCCGAGCCTGAACCCTGAGTTCCTCCGGAGTCACCTAGTGCAG | 9180 fluorescence intensity (a.u.) |
| CCTTGCACGGCTCTTCCTGCTAGGGGTGGGCATTCGGTCTCGGAGTCACCTAGTGCAG | 9700 fluorescence intensity (a.u.) |
| GGCCTCGTCCTTCTCTTCAACTGGGTTCTTCACCGGCTCACGGAGTCACCTAGTGCAG | 8540 fluorescence intensity (a.u.) |
| TTTTTTTACTGTTTCACTTAGCTCACGCTCGAGTCACAGTCGGAGTCACCTAGTGCAG | 9000 fluorescence intensity (a.u.) |
| TTCTTAGTTTGCTCTAAACACATACTCCCTCTATTTTATACGGAGTCACCTAGTGCAG | 10000 fluorescence intensity (a.u.) |
| CACATACCTCATGTTCATTAATTTATGCCGTTTCCATTTACGGAGTCACCTAGTGCAG | 8270 fluorescence intensity (a.u.) |
| AATCATTTCCGATATCCGGTCAAACCAATATGACATAAAACGGAGTCACCTAGTGCAG | 8270 fluorescence intensity (a.u.) |

| Sequence | binding signal |
| --- | --- |
| ACAACAGAACAACTCGAAACTGTTTTTGACTTTTGGCACACGGAGTCACCTAGTGCAG | 8080 fluorescence intensity (a.u.) |
| GAGACAGGGGAGGAGGGTGTATATACGAAGTTCGAAGTGACGGAGTCACCTAGTGCAG | 9120 fluorescence intensity (a.u.) |
| TGGAGAGAGAGAGAGAGAGCCCCGCCGCCGCTGTCCTTGCCGGAGTCACCTAGTGCAG | 8350 fluorescence intensity (a.u.) |
| TCACTGAAGCCAGGCCTATTTGTTTTTGCAGTATCTAAACCGGAGTCACCTAGTGCAG | 11700 fluorescence intensity (a.u.) |
| AGCAGGAGACTAGATAGCTCTTTGTTCTTGTTTGTTTTCTCGGAGTCACCTAGTGCAG | 9210 fluorescence intensity (a.u.) |
| GTCACGGCCGCCTCCGCCATCGCCTCCGCCACCTCCACCACGGAGTCACCTAGTGCAG | 13000 fluorescence intensity (a.u.) |
| GGGAGCTTTGACCAGTCAACGGTCAAACGTTCAAAGGTCTCGGAGTCACCTAGTGCAG | 10900 fluorescence intensity (a.u.) |
| CACCGCCATCTTCCTCTTCTTCTTCGTCGTCGTGGTTGGCCGGAGTCACCTAGTGCAG | 11100 fluorescence intensity (a.u.) |
| AACATCCCGAAACTAGCTAGATCACCCTGCTCCTGTCCTGCGGAGTCACCTAGTGCAG | 8140 fluorescence intensity (a.u.) |
| CACAATCATCTATACATTTCATATTTGCATATCCTTTTTTCGGAGTCACCTAGTGCAG | 11300 fluorescence intensity (a.u.) |
| TTTTATTGGTTCTTCTGTGCACCCTGGTATCCTTCCAACACGGAGTCACCTAGTGCAG | 13000 fluorescence intensity (a.u.) |
| ATCTCGCTCATGTAAACTATGTAATTGATTTTTTTCATCCCGGAGTCACCTAGTGCAG | 10200 fluorescence intensity (a.u.) |
| CTCATTTTTCCTAATTCACATCTTTCGTTTTTGGTACGCACGGAGTCACCTAGTGCAG | 10000 fluorescence intensity (a.u.) |
| TTTTTGGGGTTTTCTCTTCTTGATTGATTCGTTCTTGGCGCGGAGTCACCTAGTGCAG | 13100 fluorescence intensity (a.u.) |
| ACACACATCACACTGGCCGTCCTCCTCAAAAGCCGCGCCCCGGAGTCACCTAGTGCAG | 8990 fluorescence intensity (a.u.) |
| ACTAAGCGCATTGATTCCCATTATATACTTCCTTTCCTAACGGAGTCACCTAGTGCAG | 11400 fluorescence intensity (a.u.) |
| CGCCCGTTCCGTTCCGTTCCCTATCCCAGGCTCTCCCGGCCGGAGTCACCTAGTGCAG | 11200 fluorescence intensity (a.u.) |
| GTTTGGCAACAATTGGGGAGGGGCATAATATTAGCTCTGGCGGAGTCACCTAGTGCAG | 8260 fluorescence intensity (a.u.) |
| GGAGGAGGGCTCGCTTTATTGGAGTTTGTTCGTTTCTTTCCGGAGTCACCTAGTGCAG | 11100 fluorescence intensity (a.u.) |
| CAGTCACCACATCTCATTTCCTCGTGCTGCTTCCACCCCTCGGAGTCACCTAGTGCAG | 8420 fluorescence intensity (a.u.) |
| TACTCCACTCTCTTGGATTTATCGAGCATTGACCATACACCGGAGTCACCTAGTGCAG | 8190 fluorescence intensity (a.u.) |

Pulled one by one from above (3):

| Sequence | binding signal |
| --- | --- |
| ACTAAGCGCATTGATTCCCATTATATACTTCCTTTCCTAACGGAGTCACCTAGTGCAG | 11400 fluorescence intensity (a.u.) |
| CACCGCCATCTTCCTCTTCTTCTTCGTCGTCGTGGTTGGCCGGAGTCACCTAGTGCAG | 11100 fluorescence intensity (a.u.) |
| TTTTATTGGTTCTTCTGTGCACCCTGGTATCCTTCCAACACGGAGTCACCTAGTGCAG | 13000 fluorescence intensity (a.u.) |
